Measurements as given in PubChem BioAssay (EPA / NIEHS).
“And” between values parts separate entries of the source, which are not always exact repeats. Equal values may be shown once. The inconclusive results got no clear call from the source; some entries with a clear call stand among them for comparison. Where the call is inconclusive, the potency comes from a doubtful curve fit. The source made the active and inactive calls. How the source made its calls: active means hit-call score of the fitted dose curve at least 0.9, where 1 is the maximum; inconclusive means response in the unintended direction; inactive means score below 0.9.

Protein sequences, listed by entry. Tags and fused reporters are not part of them. Lines headed by an entry give the natural chain unless they say otherwise; changes in a name come on top.
UniProt P10276, whole entry, looked up: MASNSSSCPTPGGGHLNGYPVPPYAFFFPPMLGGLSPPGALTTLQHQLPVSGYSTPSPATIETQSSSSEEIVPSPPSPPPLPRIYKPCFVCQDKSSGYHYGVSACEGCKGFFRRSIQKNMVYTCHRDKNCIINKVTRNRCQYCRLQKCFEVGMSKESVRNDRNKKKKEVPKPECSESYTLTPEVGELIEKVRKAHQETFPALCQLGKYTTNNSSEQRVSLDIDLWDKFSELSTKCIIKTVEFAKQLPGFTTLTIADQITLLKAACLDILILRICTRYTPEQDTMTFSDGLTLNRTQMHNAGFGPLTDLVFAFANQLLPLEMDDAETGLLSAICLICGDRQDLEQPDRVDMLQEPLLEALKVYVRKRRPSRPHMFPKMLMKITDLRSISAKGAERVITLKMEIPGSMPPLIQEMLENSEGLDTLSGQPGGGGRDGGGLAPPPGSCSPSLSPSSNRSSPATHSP
UniProt O75469: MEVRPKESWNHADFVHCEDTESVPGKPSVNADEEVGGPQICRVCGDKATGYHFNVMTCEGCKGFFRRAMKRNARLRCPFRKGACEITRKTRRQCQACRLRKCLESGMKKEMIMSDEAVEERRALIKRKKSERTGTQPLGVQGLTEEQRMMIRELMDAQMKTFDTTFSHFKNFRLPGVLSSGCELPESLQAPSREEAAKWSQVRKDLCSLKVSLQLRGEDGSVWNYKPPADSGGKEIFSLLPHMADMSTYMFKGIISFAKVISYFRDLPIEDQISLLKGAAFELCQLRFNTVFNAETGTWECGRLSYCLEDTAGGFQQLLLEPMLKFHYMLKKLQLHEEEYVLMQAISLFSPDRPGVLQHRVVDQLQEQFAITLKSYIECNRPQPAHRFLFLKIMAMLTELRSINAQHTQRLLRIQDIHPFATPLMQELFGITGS
UniProt Q92753: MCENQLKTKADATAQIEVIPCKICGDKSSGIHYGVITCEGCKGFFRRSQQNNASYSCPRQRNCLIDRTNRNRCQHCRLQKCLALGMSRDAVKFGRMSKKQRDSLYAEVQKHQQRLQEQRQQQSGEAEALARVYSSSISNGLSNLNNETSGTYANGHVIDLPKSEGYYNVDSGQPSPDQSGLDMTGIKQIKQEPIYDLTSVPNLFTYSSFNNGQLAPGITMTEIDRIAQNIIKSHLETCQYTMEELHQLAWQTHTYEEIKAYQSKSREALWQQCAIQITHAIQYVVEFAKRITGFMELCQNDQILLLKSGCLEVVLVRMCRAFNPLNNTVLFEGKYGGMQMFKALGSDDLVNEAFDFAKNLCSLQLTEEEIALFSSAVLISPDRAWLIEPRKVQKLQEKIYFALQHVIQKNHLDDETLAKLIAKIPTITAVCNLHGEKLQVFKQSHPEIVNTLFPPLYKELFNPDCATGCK
UniProt P19793: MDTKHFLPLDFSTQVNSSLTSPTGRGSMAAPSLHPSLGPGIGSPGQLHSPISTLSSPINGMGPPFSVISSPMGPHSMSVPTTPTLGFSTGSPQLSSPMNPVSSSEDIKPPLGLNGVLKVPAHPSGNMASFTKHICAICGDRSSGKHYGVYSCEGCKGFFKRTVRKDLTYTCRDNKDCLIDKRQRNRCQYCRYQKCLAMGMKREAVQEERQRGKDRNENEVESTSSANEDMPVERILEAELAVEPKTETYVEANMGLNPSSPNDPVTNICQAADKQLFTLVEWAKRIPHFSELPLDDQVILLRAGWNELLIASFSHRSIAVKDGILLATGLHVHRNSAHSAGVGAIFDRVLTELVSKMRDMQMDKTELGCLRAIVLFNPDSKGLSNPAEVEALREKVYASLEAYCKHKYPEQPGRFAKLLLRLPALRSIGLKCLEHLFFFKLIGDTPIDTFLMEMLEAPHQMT
UniProt P28702: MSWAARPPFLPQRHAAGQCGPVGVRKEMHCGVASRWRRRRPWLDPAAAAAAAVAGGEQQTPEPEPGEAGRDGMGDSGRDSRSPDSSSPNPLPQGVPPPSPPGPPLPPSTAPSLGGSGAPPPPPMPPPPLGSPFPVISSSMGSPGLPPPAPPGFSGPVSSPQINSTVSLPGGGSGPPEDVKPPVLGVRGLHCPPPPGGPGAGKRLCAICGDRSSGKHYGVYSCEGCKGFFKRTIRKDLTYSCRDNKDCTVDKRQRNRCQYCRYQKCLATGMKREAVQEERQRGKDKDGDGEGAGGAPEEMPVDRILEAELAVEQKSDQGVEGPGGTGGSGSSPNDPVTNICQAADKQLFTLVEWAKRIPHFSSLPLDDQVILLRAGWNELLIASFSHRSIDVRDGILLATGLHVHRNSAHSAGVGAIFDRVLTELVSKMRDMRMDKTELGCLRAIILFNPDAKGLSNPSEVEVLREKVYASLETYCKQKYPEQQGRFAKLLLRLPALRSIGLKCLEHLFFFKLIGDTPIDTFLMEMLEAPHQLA
UniProt P11473: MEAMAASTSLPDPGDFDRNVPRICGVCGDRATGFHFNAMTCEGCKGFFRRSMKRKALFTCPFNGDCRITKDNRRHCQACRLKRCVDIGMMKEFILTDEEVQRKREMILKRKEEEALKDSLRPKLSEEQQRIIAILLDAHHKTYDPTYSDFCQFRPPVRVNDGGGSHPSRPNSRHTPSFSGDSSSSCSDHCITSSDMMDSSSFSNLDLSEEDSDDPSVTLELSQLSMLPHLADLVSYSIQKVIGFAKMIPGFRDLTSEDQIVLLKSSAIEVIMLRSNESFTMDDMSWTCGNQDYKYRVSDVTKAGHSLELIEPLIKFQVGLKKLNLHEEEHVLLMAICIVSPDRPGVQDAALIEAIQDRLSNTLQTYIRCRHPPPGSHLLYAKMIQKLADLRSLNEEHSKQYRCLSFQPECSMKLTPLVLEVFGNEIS
UniProt P51449: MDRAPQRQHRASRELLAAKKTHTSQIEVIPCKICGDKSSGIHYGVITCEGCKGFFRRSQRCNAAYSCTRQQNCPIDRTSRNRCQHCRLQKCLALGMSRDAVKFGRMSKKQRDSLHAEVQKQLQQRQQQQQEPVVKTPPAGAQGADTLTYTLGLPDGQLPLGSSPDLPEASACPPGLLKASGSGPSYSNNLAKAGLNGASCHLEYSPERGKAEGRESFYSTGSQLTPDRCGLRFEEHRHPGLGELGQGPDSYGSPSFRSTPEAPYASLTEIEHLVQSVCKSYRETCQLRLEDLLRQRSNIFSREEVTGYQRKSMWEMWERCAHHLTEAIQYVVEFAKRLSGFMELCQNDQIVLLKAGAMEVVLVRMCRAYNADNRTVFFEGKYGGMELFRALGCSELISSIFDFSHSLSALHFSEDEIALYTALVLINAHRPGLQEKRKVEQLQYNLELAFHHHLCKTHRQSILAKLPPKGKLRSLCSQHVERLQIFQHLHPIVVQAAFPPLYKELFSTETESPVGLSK
UniProt P10827: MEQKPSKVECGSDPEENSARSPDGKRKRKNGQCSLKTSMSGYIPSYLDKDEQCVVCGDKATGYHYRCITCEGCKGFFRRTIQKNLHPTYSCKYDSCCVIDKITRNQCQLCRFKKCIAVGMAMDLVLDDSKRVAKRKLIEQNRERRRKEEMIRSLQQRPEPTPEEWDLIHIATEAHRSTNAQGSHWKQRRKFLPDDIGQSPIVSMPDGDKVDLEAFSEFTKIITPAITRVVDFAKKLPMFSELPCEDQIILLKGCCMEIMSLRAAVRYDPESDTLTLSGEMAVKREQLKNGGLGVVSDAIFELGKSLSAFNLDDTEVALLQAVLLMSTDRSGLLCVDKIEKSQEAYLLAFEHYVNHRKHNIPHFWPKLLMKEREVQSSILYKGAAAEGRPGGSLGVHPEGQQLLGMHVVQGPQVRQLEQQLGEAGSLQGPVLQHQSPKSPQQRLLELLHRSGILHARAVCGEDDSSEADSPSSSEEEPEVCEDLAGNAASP
UniProt P13631, whole entry, looked up: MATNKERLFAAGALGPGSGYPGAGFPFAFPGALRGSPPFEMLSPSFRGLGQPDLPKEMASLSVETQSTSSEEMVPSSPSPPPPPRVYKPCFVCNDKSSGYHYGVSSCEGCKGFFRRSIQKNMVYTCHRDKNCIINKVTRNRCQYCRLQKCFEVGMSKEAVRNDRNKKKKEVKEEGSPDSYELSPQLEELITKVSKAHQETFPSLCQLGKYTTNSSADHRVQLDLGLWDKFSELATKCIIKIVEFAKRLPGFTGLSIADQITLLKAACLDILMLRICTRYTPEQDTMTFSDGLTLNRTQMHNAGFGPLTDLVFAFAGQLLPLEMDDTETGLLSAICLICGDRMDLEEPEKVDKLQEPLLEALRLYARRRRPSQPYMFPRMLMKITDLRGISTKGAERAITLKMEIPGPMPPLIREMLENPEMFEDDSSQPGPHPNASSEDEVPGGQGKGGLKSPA

Experiments:
[1] = target: Retinoic acid receptor alpha (Homo sapiens) (UniProt P10276); experiment: ATG_RARa_TRANS: Attagene TRANS-FACTORIAL HepG2 Assay for human Retinoic Acid Receptor alpha (RARa) (AID 2283005);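 on AC50: potency for increased reporter signal meaning RARa activation over DMSO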
Summary of the method: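 HepG2 transiently transfected with multiplex GAL4-UAS reporter units including a human RARa–GAL4 chimera; 24 h compound exposure. Reporter mRNA quantified by RT-PCR, 6-FAM labeling and capillary electrophoresis; gain of signal versus DMSO.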

[2] = target: Nuclear receptor subfamily 1 group I member 2 (Homo sapiens) (UniProt O75469); experiment: ATG_PXR_TRANS: Attagene TRANS-FACTORIAL HepG2 Assay for human Pregnane X Receptor (PXR) (AID 2283008)
Summary of the method: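 Transient HepG2 transfectants carrying multiplexed reporter transcription units; PXR activity read through a Gal4 chimera. 24 h exposure. RT-PCR/CE fluorescence; upward curve fit referenced to DMSO.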

[3] = target: human RAR-related Orphan Receptor beta (RORb), RORB (gene 6096) (UniProt Q92753); experiment: ATG_RORb_TRANS: Attagene TRANS-FACTORIAL HepG2 Assay for human RAR-related Orphan Receptor beta (RORb) (AID 2283010);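 on AC50: potency for increased reporter mRNA meaning activation of RORb-Gal4 chimera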
Summary of the method: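 Multiplexed transcription-factor reporter assay: HepG2 cells transiently carrying NR-Gal4/GAL4-UAS constructs, 24 h treatment, mRNA quantified by RT-PCR plus capillary electrophoresis fluorescence; activity scored as induction over DMSO.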

[4] = target: Retinoic acid receptor RXR-alpha (Homo sapiens) (UniProt P19793); experiment: ATG_RXRa_TRANS: Attagene TRANS-FACTORIAL HepG2 Assay for human Retinoid X Receptor alpha (RXRa) (AID 2283012)
Summary of the method: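 Chimeric NR-GAL4 trans-activation in HepG2, 24 h treatment; reporter transcripts quantified by fluorescence on capillary electrophoresis, analysed for upward change from DMSO.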

[5] = target: human Retinoid X Receptor beta (RXRb), RXRB (gene 6257) (UniProt P28702); experiment: ATG_RXRb_TRANS: Attagene TRANS-FACTORIAL HepG2 Assay for human Retinoid X Receptor beta (RXRb) (AID 2283013)
Summary of the method: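 After a 24 h incubation with test chemical, transfected HepG2 cells carrying NR-Gal4 fusions and GAL4-UAS reporter transcription units yield RNA whose reporter cDNA is FAM-labelled, HpaI-cut and sized by capillary electrophoresis; increases over DMSO are scored.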

[6] = target: human Vitamin D Receptor (VDR), VDR (gene 7421) (UniProt P11473); experiment: ATG_VDR_TRANS: Attagene TRANS-FACTORIAL HepG2 Assay for human Vitamin D Receptor (VDR) (AID 2283022)
Summary of the method: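 Fluorescence of labelled reporter cDNA fragments, resolved by capillary electrophoresis, gives mRNA induction after 24 h treatment of HepG2 cells carrying transfected Gal4-fusion reporter units. Activity is fitted in the positive direction with DMSO as baseline.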

[7] = target: human RAR-related Orphan Receptor gamma (RORg), RORC (gene 6097) (UniProt P51449); experiment: ATG_RORg_TRANS: Attagene TRANS-FACTORIAL HepG2 Assay for human RAR-related Orphan Receptor gamma (RORg) (AID 2283011);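 on AC50: potency for induction of reporter transcripts above DMSO so activators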
Summary of the method: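 Activity is scored as increase in GAL4-UAS reporter mRNA over DMSO, detected by fluorescent RT-PCR and capillary electrophoresis in HepG2 cells transiently expressing a RORg-Gal4 chimera, 24 h after dosing.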

[8] = target: human Thyroid Receptor alpha (THRa1), THRA (gene 7067) (UniProt P10827); experiment: ATG_THRa1_TRANS: Attagene TRANS-FACTORIAL HepG2 Assay for human Thyroid Receptor alpha (THRa1) (AID 2283014)
Summary of the method: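 First, HepG2 cells receive multiple GAL4-UAS reporter units and the chimeric receptor. They are then dosed for 24 h, after which RNA is reverse-transcribed, amplified, labelled, HpaI-cut and sized by capillary electrophoresis; gain relative to DMSO is scored.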

[9] = target: human Retinoic Acid Receptor gamma (RARg), RARG (gene 5916) (UniProt P13631); experiment: ATG_RARg_TRANS: Attagene TRANS-FACTORIAL HepG2 Assay for human Retinoic Acid Receptor gamma (RARg) (AID 2283009);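 on AC50: AC50 is for reporter induction above DMSO meaning RARg activation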
Summary of the method: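 Gain-of-signal relative to DMSO is reported from fluorescent capillary electrophoresis of RT-PCR reporter products. These came from HepG2 cells expressing transfected RARg-GAL4 chimeras with UAS reporters, harvested 24 h after dosing.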

Measured: AC50

N#Cc1ccc(C2CCCc3cncn32)cc1 (centres undefined)
inactive: [2] | [4]
inconclusive: [1] 38.5 µM | [3] 38.5 µM | [5] 38.5 µM | [6] 38.5 µM

CC(=O)Oc1ccc(C)cc1
inactive: [3] | [7]
inconclusive: [1] 183 µM | [2] 26.8 µM | [8] 20.3 µM

Cc1cccc(O)c1C
inactive: [1] | [2] | [9] | [4]
inconclusive: [4] 0.023 µM

CCCCCCCOC(=O)c1ccc(O)cc1
inconclusive: [2] 0.00199 µM | [3] 11.1 µM | [7] 11.1 µM | [4] 0.104 µM | [8] 11.1 µM | [6] 11.1 µM
inactive: [1]

O=C(O)C=C(C(F)(F)F)C(F)(F)F
inconclusive: [1] 150 µM and 258 µM | [3] 150 µM | [4] 10.1 µM | [5] 150 µM | [8] 150 µM
inactive: [2] | [7] | [4] | [5] | [8]

CCN(Cc1cccc(S(=O)(=O)O)c1)c1ccc(C(=C2C=CC(=[N+](CC)Cc3cccc(S(=O)(=O)O)c3)C=C2)c2ccccc2S(=O)(=O)[O-])cc1
inconclusive: [1] 0.00667 µM | [9] 62 µM | [5] 62 µM
inactive: [2] | [8]

OCCCCC(F)(F)C(F)(F)C(F)(F)C(F)(F)F
inconclusive: [1] 150 µM | [2] 150 µM | [3] 150 µM | [7] 150 µM | [5] 150 µM | [8] 150 µM

CC1(C)[C@H]2CC[C@]1(C)C(=O)C2
inactive: [2]
inconclusive: [1] 173 µM | [3] 178 µM | [5] 1.16 µM | [8] 100 µM | [6] 0.194 µM

Cc1ccc2oc(=O)ccc2c1
inactive: [1] | [2] | [4]
inconclusive: [9] 7.05 µM

Cc1cc(Cc2cc(C)cc(C(C)(C)C)c2O)c(O)c(C(C)(C)C)c1
inconclusive: [3] 26.2 µM | [7] 19.4 µM | [4] 59.2 µM
inactive: [1] | [9] | [5] | [8]

NC(=O)c1nc(-c2cccc(-c3cc(F)ccc3OCC(F)(F)C(F)(F)F)c2)n[nH]1
inconclusive: [1] 52.9 µM | [9] 53.4 µM | [3] 33 µM | [7] 0.154 µM | [5] 33 µM | [8] 5.59 µM
inactive: [4]

O=S(=O)(OCC(F)F)C(F)(F)F
inactive: [7] | [6]
inconclusive: [1] 235 µM and 211 µM | [9] 150 µM | [3] 219 µM and 150 µM | [7] 150 µM | [5] 150 µM and 34.9 µM | [8] 150 µM

CC[C@H]1OC(=O)[C@H](C)[C@@H](O[C@H]2C[C@@](C)(OC)[C@@H](O)[C@H](C)O2)[C@H](C)[C@@H](O[C@@H]2O[C@H](C)C[C@H](N(C)C)[C@H]2O)[C@](C)(O)C[C@@H](C)C(=NOCOCCOC)[C@H](C)[C@@H](O)[C@]1(C)O
inconclusive: [9] 60 µM | [3] 20.5 µM | [4] 60 µM | [8] 28.8 µM
inactive: [1] | [7] | [5]

O=C(O)C1(C(=O)Nc2ccc(Cl)cc2Cl)CC1
inactive: [9] | [7] | [4]
inconclusive: [1] 50 µM | [3] 50 µM | [5] 50 µM

Sorted by heavy-atom count (ascending): some entries from above.
O=S(=O)(OCC(F)F)C(F)(F)F
inactive: [7] | [6]
inconclusive: [1] 235 µM and 211 µM | [9] 150 µM | [3] 219 µM and 150 µM | [7] 150 µM | [5] 150 µM and 34.9 µM | [8] 150 µM

Cc1cc(Cc2cc(C)cc(C(C)(C)C)c2O)c(O)c(C(C)(C)C)c1
inconclusive: [3] 26.2 µM | [7] 19.4 µM | [4] 59.2 µM
inactive: [1] | [9] | [5] | [8]

CC[C@H]1OC(=O)[C@H](C)[C@@H](O[C@H]2C[C@@](C)(OC)[C@@H](O)[C@H](C)O2)[C@H](C)[C@@H](O[C@@H]2O[C@H](C)C[C@H](N(C)C)[C@H]2O)[C@](C)(O)C[C@@H](C)C(=NOCOCCOC)[C@H](C)[C@@H](O)[C@]1(C)O
inconclusive: [9] 60 µM | [3] 20.5 µM | [4] 60 µM | [8] 28.8 µM
inactive: [1] | [7] | [5]

(more compounds)

COc1ccc2cc(S(=O)(=O)N[C@H](CC(=O)N[C@H](Cc3ccc(CN4[C@H](C)CCC[C@@H]4C)cc3)C(=O)N(C)C(C)C)c3ccc4c(c3)OCO4)ccc2c1
inconclusive: [1] 8.61 µM | [9] 2.18 µM | [3] 11 µM | [7] 11 µM | [5] 0.00543 µM | [8] 2.18 µM
inactive: [4]
